Amino acid sequences for entries named in this document (tags omitted). Residues count along the entry.
UniProt P41376, 2-412: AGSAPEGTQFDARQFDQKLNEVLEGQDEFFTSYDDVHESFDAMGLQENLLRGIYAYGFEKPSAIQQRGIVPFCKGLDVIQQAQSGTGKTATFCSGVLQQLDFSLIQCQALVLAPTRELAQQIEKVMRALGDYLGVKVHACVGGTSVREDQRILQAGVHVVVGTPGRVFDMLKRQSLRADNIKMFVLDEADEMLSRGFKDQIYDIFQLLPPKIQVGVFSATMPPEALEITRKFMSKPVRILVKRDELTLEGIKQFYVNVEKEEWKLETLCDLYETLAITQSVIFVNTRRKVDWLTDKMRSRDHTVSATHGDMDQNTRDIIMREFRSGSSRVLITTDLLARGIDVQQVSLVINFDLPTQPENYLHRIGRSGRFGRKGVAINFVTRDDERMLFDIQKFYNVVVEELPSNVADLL
UniProt P41376, whole entry: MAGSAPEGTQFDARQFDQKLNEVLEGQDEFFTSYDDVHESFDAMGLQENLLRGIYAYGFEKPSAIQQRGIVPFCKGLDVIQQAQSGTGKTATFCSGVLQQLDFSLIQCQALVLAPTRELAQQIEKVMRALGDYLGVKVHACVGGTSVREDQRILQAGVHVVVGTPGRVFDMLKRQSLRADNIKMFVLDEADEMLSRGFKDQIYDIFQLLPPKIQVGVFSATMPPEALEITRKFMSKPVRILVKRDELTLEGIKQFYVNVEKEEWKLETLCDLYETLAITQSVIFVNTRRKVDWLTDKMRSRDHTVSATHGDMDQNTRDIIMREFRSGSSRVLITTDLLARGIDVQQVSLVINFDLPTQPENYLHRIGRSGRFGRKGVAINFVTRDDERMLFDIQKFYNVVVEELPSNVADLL

In publication PMC9293640, “Insights into the structural dynamics and helicase-catalyzed unfolding of plant RNA G-quadruplexes”:

Columns and labels:
[1] = molecular target: T1, RH3 (lysate) (Arabidopsis thaliana) (UniProt Q8L7S8); assay: pull-down; settings: LC-MS/MS, compared with U15 ssRNA; pull-down: 20 mM Tris-HCl pH 7.5, 300 mM KCl, 0.1% Tween-20, 2 mM EDTA, RNase inhibitor, 4 °C 4 h; protein in an extract; label: 3'-biotin
T1 sequence (looked up, limits assumed): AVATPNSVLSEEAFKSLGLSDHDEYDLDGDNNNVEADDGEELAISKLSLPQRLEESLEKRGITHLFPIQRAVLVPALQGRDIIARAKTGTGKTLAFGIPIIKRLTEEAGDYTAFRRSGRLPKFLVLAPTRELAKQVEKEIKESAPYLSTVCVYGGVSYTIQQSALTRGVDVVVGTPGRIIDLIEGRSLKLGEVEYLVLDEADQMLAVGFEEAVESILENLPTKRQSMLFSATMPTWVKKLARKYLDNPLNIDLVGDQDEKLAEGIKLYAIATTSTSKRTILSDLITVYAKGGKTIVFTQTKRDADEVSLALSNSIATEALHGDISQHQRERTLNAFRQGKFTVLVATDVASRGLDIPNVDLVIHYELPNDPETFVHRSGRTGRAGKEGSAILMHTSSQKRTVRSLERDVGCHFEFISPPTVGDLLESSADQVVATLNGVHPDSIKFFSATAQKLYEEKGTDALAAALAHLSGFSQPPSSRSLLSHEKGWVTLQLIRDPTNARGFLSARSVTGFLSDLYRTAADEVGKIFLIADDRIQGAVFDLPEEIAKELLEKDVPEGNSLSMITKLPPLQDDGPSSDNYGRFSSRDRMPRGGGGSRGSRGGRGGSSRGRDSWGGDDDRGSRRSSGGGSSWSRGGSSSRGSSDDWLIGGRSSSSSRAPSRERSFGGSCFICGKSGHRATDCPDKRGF

[2] = molecular target: eIF4A (lysate) (Arabidopsis thaliana) (UniProt P41376); assay: pull-down; settings: LC-MS/MS, compared with U15 ssRNA; pull-down: 20 mM Tris-HCl pH 7.5, 300 mM KCl, 0.1% Tween-20, 2 mM EDTA, RNase inhibitor, 4 °C 4 h; protein in an extract; label: 3'-biotin
[3] = molecular target: T2, RH53 (lysate) (Arabidopsis thaliana) (UniProt Q9LUW5); assay: pull-down; settings: LC-MS/MS, compared with U15 ssRNA; pull-down: 20 mM Tris-HCl pH 7.5, 300 mM KCl, 0.1% Tween-20, 2 mM EDTA, RNase inhibitor, 4 °C 4 h; protein in an extract; label: 3'-biotin
T2 sequence (looked up, limits assumed): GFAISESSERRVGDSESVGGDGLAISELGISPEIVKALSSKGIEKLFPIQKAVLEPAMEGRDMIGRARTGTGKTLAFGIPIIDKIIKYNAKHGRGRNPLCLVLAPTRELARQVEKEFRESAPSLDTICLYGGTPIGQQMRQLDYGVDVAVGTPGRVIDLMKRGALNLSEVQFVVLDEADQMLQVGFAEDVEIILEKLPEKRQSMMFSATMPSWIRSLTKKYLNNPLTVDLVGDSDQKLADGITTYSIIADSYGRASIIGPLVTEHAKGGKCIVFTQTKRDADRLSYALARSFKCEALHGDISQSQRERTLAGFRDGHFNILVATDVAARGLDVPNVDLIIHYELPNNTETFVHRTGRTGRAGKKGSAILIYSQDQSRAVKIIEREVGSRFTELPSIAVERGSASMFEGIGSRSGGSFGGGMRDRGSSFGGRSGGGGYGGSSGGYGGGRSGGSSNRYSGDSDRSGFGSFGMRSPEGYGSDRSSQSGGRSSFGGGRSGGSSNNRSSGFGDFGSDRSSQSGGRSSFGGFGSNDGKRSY

[4] = molecular target: T3, DExH15 (lysate) (Arabidopsis thaliana) (UniProt B9DFG3); assay: pull-down; settings: LC-MS/MS, compared with U15 ssRNA; pull-down: 20 mM Tris-HCl pH 7.5, 300 mM KCl, 0.1% Tween-20, 2 mM EDTA, RNase inhibitor, 4 °C 4 h; protein in an extract; label: 3'-biotin
T3 sequence (looked up, limits assumed): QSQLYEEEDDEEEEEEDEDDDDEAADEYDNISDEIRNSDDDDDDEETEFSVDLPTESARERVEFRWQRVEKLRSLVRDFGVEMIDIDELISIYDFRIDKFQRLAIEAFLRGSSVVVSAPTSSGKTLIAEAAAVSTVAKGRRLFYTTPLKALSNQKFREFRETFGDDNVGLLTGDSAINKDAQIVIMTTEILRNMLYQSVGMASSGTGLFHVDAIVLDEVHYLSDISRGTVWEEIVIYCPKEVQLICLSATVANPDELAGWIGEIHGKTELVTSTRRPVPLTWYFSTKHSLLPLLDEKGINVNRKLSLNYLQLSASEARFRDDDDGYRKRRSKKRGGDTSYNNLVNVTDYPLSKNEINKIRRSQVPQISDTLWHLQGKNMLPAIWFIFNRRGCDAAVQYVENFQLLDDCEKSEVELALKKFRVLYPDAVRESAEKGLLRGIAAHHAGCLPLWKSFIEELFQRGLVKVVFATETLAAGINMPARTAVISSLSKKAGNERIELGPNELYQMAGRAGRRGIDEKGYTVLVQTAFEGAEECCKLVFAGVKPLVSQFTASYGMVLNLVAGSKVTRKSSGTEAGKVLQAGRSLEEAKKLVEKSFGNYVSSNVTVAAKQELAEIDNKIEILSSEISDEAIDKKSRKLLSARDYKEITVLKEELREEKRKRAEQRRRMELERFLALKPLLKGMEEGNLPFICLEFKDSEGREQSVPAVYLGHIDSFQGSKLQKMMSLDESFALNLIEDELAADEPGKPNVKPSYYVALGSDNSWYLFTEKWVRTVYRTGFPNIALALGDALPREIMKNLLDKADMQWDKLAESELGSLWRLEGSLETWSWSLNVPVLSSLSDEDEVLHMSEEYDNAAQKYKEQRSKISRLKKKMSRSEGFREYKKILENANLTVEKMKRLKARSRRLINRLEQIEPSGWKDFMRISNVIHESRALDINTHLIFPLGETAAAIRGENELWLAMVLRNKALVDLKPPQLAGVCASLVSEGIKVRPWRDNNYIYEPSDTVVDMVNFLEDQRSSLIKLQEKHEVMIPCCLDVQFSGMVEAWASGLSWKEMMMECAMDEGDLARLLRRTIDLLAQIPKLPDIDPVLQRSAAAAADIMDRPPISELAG

[5] = molecular target: T4, DExH1 (lysate) (Arabidopsis thaliana) (UniProt F4ILR7); assay: pull-down; settings: LC-MS/MS, compared with U15 ssRNA; pull-down: 20 mM Tris-HCl pH 7.5, 300 mM KCl, 0.1% Tween-20, 2 mM EDTA, RNase inhibitor, 4 °C 4 h; protein in an extract; label: 3'-biotin
T4 sequence (looked up, limits assumed): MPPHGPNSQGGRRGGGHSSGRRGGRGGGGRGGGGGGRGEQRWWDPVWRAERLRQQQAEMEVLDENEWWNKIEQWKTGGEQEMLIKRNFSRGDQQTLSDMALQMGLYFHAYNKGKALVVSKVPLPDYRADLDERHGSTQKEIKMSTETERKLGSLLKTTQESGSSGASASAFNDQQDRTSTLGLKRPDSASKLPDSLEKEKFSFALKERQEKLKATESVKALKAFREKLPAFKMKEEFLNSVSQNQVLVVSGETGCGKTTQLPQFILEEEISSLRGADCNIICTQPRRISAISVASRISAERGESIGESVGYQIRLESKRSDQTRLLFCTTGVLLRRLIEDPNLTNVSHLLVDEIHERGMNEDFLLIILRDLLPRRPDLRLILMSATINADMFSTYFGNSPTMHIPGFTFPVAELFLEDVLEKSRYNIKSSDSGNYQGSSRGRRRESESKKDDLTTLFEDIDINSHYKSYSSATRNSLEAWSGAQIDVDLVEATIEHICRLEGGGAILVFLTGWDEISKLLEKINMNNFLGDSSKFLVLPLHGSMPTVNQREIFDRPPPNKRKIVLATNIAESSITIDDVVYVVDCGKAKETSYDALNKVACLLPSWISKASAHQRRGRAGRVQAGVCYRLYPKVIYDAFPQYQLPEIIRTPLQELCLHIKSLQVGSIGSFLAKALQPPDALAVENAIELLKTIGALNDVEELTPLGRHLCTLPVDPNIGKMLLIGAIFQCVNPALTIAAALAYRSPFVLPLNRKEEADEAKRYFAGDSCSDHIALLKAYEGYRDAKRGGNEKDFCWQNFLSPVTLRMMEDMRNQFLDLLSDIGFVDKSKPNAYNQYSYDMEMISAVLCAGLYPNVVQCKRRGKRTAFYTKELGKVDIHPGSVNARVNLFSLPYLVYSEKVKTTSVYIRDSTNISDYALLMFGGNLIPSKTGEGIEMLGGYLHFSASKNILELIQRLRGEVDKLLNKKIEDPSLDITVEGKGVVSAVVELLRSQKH

[6] = molecular target: eIF4A (eIF4A1) (Arabidopsis thaliana) (UniProt P41376); assay: MST; settings: EC50 only in figure; MST: 20 nM FAM-RNA; recombinant protein; residues 1-412; protein details: 6xHis-SUMO removed; label: 3'-FAM
SUMO tag = assay: MST; settings: tag-only control; MST: 20 nM FAM-RNA; recombinant protein; label: 3'-FAM
[7] = molecular target: T5, RH3 (Arabidopsis thaliana) (UniProt Q8L7S8); assay: MST; settings: EC50 only in figure; MST: 20 nM FAM-RNA; recombinant protein; residues 1-748; protein details: N-terminal 6xHis-SUMO (retained); label: 3'-FAM
T5 sequence (looked up): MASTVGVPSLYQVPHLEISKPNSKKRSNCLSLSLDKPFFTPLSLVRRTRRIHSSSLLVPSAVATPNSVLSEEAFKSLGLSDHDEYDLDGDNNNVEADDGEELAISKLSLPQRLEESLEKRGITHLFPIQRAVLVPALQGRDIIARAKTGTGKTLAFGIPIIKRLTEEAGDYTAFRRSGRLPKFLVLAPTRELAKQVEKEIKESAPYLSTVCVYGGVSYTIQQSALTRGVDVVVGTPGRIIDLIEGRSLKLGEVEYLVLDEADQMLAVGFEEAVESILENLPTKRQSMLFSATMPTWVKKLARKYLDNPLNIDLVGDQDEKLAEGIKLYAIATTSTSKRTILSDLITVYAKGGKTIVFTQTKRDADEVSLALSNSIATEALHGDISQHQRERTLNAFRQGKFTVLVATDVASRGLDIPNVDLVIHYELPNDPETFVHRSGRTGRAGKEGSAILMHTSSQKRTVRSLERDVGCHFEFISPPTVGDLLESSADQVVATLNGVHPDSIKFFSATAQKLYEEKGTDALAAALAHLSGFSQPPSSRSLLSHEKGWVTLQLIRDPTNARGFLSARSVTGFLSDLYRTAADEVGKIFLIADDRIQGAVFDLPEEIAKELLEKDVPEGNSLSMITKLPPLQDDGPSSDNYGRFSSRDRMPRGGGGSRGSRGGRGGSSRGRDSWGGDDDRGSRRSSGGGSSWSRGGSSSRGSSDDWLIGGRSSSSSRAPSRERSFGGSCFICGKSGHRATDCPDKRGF

[8] = molecular target: T6, RH53 (Arabidopsis thaliana) (UniProt Q9LUW5); assay: MST; settings: EC50 only in figure; MST: 20 nM FAM-RNA; recombinant protein; residues 1-616; protein details: N-terminal 6xHis-SUMO (retained); label: 3'-FAM
T6 sequence (looked up): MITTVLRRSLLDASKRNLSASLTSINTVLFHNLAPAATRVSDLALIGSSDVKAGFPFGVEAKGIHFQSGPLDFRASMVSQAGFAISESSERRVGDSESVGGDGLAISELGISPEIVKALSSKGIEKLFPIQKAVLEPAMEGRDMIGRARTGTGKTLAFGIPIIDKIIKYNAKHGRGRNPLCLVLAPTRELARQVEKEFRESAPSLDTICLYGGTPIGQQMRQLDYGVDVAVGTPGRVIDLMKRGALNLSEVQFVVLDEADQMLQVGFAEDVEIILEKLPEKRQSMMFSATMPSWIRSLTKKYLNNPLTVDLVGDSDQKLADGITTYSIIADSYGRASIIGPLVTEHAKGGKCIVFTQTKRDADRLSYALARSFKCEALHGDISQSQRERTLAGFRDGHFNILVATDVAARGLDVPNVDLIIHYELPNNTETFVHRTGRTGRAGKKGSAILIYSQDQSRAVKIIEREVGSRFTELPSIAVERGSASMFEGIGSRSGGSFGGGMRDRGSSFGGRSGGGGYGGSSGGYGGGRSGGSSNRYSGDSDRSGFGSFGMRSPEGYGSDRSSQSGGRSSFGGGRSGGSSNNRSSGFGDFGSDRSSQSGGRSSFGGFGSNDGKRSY

**Q.** Does “GAGGGAGGGAAGGGGAAGGGGUAAUUUUUUUUUUUUUUU [G4RNA15Ubiotin]” bind [1]?
**A.** binds

**Q.** Does “GAGGGAGGGAAGGGGAAGGGGUAAUUUUUUUUUUUUUUU [G4RNA15Ubiotin]” bind [2]?
**A.** binds

**Q.** Does “GAGGGAGGGAAGGGGAAGGGGUAAUUUUUUUUUUUUUUU [G4RNA15Ubiotin]” bind [3]?
**A.** binds

**Q.** Does “GAGGGAGGGAAGGGGAAGGGGUAAUUUUUUUUUUUUUUU [G4RNA15Ubiotin]” bind [4]?
**A.** binds

**Q.** Does “GAGGGAGGGAAGGGGAAGGGGUAAUUUUUUUUUUUUUUU [G4RNA15Ubiotin]” bind [5]?
**A.** binds

**Q.** Does “GGGAGGGAAGGGGAAGGGGUUUUUUUUUUUUUUU [G4S (3' tail rG4)]” bind [6]?
**A.** binds

**Q.** Does “GGGAGGGAAGGGGAAGGGGUUUUUUUUUUUUUUU [G4S (3' tail rG4)]” bind (SUMO tag)?
**A.** no binding

**Q.** Does “GGGAGGGAAGGGGAAGGGGUUUUUUUUUUUUUUU [G4S (3' tail rG4)]” bind [7]?
**A.** binds

**Q.** Does “GGGAGGGAAGGGGAAGGGGUUUUUUUUUUUUUUU [G4S (3' tail rG4)]” bind [8]?
**A.** binds

The exact form of at least one protein or probe is not confirmed. For part of these data: A negative result means that nothing was seen under these conditions. For part of these data: At least one result comes from cells or an extract, where the contact may be indirect. For part of these data: Where a protein sequence is shown, tags need not be part of it. For part of these data: At least one verdict rests on a figure or table, not on a statement of the authors.
